PubChem BioAssay AID1671195 | Yale University | 2021

Screen: 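Genes whose knockdown alters LDL uptake in liver cancer cells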 (primary screen)
System: human Huh7 hepatoma cells
Reagents: siRNA pool against human genes, 18 nM
Time to read-out: about 2 to 2.5 days of knockdown, then 8 h LDL uptake
Challenge: DiI-labelled LDL at 30 µg/ml for 8 h, in lipoprotein-deficient serum medium
Detection: 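Per-cell DiI-LDL intensity by automated imaging; well means scaled to the plate median and given as a robust z-score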
Scale: robust z-score: higher = more LDL uptake after knockdown
Call rule: 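Active when two or more replicates show a robust z-score above 2 or below -2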
The deposit covers about 22,000 reagents; shown is an unselected part. About 1,510 of all reagents (6.9%) were called active. 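Active includes knockdowns raising or lowering LDL uptake; positive z-scores mean more uptake, negative mean less.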 No sequences are given here.

NDUFS1 (GeneID 4719): robust z-score, replicate 1 = 0.239; robust z-score, replicate 2 = -0.783; robust z-score, replicate 3 = 0.0105; Call = inactive
UQCC4 (GeneID 283951): robust z-score, replicate 1 = 0.665; robust z-score, replicate 2 = 0.49; robust z-score, replicate 3 = 0.719; Call = inactive
LOC442002 (retired record) (GeneID 442002): robust z-score, replicate 1 = -1.62; robust z-score, replicate 2 = -1.08; robust z-score, replicate 3 = -1.02; Call = inactive
JMJD4 (GeneID 65094): robust z-score, replicate 1 = 1.19; robust z-score, replicate 2 = 1.5; robust z-score, replicate 3 = 0.816; Call = inactive
RACGAP1 (GeneID 29127): robust z-score, replicate 1 = 0.87; robust z-score, replicate 2 = 0.895; robust z-score, replicate 3 = 0.714; Call = inactive

Ordered by “robust z-score, replicate 3” (high to low): some entries from above
UQCC4 (GeneID 283951): robust z-score, replicate 1 = 0.665; robust z-score, replicate 2 = 0.49; robust z-score, replicate 3 = 0.719; Call = inactive
NDUFS1 (GeneID 4719): robust z-score, replicate 1 = 0.239; robust z-score, replicate 2 = -0.783; robust z-score, replicate 3 = 0.0105; Call = inactive

Additional results follow:
LOC387904 (retired record) (GeneID 387904): robust z-score, replicate 1 = 1.66; robust z-score, replicate 2 = 1.82; robust z-score, replicate 3 = 2.7; Call = inactive
LOC342853 (retired record) (GeneID 342853): robust z-score, replicate 1 = -0.137; robust z-score, replicate 2 = -0.281; robust z-score, replicate 3 = -0.0882; Call = inactive
TBX18 (GeneID 9096): robust z-score, replicate 1 = -0.3; robust z-score, replicate 2 = 0.111; robust z-score, replicate 3 = 0.189; Call = inactive
MTR (GeneID 4548): robust z-score, replicate 1 = -0.267; robust z-score, replicate 2 = -0.085; robust z-score, replicate 3 = -0.406; Call = inactive
FANCB (GeneID 2187): robust z-score, replicate 1 = 0.113; robust z-score, replicate 2 = 1.52; robust z-score, replicate 3 = 0.752; Call = inactive
IRF1 (GeneID 3659): robust z-score, replicate 1 = -0.0611; robust z-score, replicate 2 = -0.0997; robust z-score, replicate 3 = -0.292; Call = inactive
GATA4 (GeneID 2626): robust z-score, replicate 1 = -1.4; robust z-score, replicate 2 = -0.987; robust z-score, replicate 3 = -1.16; Call = inactive
OR8K5 (GeneID 219453): robust z-score, replicate 1 = 0.956; robust z-score, replicate 2 = 0.964; robust z-score, replicate 3 = 0.602; Call = inactive
BNIP5 (GeneID 389384): robust z-score, replicate 1 = -0.211; robust z-score, replicate 2 = -0.2; robust z-score, replicate 3 = 0.172; Call = inactive
KRT26 (GeneID 353288): robust z-score, replicate 1 = -0.672; robust z-score, replicate 2 = -0.334; robust z-score, replicate 3 = -0.0234; Call = inactive
ALG10 (GeneID 84920): robust z-score, replicate 1 = 0.0513; robust z-score, replicate 2 = 0.147; robust z-score, replicate 3 = -0.271; Call = inactive
